Measured values as given in the supplement of paper PMC6411743.
± gives the standard deviation of the averaged measurements. This is a selection; strong and weak results do not stand in their true shares.

Sequences of proteins named here, by UniProt entry; tags and fusion partners are left off. A change or cut given only in a name is not applied to a line headed by its entry.
UniProt Q8WTT2: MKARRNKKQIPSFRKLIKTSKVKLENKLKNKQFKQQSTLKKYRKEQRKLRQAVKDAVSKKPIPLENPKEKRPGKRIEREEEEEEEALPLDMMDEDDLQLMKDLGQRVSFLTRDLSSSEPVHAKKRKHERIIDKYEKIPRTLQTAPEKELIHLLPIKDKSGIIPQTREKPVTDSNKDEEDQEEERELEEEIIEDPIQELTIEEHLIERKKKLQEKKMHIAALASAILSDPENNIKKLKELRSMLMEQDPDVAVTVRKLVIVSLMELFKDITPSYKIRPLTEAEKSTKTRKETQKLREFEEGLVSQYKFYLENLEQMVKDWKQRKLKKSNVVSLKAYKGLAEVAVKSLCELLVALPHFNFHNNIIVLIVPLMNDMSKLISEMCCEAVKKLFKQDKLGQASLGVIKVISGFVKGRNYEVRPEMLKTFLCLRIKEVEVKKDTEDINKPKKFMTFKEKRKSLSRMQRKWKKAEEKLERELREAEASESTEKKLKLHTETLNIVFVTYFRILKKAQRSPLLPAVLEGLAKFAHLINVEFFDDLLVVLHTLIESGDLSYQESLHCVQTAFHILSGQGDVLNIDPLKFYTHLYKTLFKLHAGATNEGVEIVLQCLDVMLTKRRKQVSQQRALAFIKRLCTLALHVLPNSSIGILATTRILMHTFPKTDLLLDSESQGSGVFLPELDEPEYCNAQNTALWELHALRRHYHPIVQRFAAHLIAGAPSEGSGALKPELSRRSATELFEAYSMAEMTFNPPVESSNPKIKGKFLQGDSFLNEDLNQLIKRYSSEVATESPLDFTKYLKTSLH
UniProt Q96AA3: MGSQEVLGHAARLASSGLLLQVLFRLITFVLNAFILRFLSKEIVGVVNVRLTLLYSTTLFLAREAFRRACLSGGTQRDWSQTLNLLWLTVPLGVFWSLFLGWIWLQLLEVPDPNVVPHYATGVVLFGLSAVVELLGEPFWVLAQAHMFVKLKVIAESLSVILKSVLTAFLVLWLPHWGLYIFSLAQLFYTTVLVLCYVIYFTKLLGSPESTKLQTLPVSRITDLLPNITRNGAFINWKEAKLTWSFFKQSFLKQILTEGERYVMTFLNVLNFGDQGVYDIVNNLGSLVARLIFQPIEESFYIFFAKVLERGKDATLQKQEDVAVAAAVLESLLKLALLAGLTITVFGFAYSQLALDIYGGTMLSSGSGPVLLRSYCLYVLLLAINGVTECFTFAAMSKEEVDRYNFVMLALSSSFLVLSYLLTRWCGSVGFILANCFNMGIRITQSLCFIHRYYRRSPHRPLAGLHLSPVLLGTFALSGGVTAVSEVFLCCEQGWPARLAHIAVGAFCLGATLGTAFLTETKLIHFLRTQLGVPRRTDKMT
UniProt Q8WXE1: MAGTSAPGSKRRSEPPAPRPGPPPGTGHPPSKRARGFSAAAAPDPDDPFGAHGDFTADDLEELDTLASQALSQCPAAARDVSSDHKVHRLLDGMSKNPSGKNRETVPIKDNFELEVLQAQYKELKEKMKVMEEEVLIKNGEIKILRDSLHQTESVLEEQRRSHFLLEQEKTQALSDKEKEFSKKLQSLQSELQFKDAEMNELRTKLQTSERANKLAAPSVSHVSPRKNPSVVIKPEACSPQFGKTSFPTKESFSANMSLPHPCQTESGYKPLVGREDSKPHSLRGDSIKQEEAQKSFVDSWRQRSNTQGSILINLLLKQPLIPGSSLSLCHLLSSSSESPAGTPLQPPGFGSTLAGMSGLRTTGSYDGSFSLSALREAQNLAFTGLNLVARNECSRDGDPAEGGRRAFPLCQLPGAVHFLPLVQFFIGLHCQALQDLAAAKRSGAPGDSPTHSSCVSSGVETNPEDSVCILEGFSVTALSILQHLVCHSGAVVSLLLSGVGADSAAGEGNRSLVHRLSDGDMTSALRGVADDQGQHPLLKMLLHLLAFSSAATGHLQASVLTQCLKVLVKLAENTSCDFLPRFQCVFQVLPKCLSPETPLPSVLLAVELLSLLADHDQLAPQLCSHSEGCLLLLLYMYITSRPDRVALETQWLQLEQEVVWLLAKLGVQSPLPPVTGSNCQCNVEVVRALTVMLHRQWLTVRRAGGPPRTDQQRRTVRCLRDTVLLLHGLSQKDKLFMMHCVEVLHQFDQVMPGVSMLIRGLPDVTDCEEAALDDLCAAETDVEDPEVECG
UniProt Q8WUW1: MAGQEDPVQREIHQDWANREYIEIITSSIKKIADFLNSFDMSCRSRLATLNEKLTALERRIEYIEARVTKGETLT
UniProt Q8TDX7: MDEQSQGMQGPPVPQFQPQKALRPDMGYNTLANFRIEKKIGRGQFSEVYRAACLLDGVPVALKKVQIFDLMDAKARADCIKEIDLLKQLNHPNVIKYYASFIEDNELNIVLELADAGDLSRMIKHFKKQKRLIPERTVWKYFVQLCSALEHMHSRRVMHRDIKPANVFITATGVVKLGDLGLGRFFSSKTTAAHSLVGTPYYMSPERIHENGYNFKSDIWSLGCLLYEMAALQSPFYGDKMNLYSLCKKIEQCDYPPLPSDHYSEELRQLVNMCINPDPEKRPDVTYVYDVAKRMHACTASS
UniProt Q92785, whole entry: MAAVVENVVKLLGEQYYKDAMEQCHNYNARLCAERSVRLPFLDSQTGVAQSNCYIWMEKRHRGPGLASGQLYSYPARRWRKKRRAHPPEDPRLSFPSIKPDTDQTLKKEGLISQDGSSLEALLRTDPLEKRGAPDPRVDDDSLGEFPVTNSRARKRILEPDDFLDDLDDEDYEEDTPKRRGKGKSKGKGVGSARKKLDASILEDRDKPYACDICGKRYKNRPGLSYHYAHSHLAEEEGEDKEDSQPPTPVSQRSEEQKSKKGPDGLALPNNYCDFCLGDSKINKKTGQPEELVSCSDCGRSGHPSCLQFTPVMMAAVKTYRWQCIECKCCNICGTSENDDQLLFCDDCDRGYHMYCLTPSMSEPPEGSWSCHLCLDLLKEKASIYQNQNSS
UniProt Q96AC1: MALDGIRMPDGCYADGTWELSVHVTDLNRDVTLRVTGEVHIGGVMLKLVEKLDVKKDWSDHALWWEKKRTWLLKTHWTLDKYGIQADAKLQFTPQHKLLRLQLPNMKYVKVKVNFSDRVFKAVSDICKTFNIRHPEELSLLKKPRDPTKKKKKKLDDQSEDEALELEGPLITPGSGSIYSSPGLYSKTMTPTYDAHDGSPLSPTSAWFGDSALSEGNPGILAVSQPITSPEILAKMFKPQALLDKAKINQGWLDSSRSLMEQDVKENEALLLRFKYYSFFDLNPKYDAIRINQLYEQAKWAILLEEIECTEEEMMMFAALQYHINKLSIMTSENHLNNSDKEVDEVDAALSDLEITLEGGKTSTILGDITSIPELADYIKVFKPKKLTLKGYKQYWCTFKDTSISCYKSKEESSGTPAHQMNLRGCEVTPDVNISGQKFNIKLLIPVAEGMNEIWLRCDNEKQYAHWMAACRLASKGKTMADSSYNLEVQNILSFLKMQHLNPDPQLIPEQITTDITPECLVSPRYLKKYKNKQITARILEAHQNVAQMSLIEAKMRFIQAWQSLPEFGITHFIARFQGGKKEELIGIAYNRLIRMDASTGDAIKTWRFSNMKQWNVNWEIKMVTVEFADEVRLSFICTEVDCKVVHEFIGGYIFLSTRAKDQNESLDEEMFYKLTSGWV
UniProt Q969E4: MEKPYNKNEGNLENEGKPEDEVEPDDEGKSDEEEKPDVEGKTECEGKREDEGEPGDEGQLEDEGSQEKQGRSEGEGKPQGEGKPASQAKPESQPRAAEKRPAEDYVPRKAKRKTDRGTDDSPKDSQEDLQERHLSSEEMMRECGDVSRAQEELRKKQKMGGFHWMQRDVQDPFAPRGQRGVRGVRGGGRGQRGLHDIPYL
UniProt Q92542, whole entry: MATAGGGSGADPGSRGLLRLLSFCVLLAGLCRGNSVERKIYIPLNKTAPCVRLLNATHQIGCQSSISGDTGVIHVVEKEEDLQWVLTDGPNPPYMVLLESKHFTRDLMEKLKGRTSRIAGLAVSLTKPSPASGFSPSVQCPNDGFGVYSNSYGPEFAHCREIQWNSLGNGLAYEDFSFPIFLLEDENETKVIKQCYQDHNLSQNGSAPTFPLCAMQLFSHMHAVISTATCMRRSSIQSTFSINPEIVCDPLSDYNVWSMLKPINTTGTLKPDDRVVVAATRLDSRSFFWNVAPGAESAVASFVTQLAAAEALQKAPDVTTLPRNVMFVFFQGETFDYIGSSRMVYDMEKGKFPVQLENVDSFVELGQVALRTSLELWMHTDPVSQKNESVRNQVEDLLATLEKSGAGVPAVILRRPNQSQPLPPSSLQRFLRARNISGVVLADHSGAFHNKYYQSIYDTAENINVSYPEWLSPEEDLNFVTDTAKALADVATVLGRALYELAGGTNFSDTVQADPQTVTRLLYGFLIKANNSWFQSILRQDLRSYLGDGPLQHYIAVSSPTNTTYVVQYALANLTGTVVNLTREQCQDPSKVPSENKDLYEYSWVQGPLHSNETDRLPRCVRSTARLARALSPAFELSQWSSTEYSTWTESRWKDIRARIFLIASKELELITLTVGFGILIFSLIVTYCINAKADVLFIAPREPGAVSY
UniProt Q8TDQ7: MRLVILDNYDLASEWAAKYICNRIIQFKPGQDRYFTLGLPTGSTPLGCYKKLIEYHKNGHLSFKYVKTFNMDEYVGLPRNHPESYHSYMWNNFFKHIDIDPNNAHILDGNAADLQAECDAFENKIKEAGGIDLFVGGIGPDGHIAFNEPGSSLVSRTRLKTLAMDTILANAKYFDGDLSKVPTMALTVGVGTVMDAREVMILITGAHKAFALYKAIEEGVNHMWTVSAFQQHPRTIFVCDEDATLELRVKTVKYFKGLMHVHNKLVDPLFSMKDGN
UniProt Q8WVT3: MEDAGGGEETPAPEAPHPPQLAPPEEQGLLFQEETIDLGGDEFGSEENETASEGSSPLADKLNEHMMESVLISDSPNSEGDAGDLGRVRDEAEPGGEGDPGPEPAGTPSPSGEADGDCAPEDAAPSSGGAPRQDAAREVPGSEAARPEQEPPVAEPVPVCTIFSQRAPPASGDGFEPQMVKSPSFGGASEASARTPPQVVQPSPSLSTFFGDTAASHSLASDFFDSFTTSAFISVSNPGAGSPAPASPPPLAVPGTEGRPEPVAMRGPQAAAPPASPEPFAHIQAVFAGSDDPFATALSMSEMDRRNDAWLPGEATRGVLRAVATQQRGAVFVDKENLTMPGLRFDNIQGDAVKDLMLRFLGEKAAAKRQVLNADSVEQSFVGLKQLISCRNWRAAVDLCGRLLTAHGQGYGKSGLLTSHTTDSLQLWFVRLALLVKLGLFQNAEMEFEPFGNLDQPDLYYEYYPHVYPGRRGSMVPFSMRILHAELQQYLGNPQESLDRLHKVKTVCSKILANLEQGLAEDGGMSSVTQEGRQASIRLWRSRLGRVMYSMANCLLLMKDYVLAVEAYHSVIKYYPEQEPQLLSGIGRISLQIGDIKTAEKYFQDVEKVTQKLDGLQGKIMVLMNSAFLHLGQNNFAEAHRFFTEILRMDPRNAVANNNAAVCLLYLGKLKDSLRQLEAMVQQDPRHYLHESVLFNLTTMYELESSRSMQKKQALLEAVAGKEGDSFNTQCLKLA
UniProt Q96B01: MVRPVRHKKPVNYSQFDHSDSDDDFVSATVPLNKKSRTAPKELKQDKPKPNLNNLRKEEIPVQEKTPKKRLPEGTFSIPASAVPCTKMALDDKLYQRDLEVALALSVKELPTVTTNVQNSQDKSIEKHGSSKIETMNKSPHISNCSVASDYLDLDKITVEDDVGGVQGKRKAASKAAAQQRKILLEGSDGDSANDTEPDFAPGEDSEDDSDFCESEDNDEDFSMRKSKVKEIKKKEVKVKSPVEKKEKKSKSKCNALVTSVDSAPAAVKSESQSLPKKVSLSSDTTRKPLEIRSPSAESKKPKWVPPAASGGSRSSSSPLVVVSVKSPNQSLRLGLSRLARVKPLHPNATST
UniProt Q8WVM8, whole entry, looked up: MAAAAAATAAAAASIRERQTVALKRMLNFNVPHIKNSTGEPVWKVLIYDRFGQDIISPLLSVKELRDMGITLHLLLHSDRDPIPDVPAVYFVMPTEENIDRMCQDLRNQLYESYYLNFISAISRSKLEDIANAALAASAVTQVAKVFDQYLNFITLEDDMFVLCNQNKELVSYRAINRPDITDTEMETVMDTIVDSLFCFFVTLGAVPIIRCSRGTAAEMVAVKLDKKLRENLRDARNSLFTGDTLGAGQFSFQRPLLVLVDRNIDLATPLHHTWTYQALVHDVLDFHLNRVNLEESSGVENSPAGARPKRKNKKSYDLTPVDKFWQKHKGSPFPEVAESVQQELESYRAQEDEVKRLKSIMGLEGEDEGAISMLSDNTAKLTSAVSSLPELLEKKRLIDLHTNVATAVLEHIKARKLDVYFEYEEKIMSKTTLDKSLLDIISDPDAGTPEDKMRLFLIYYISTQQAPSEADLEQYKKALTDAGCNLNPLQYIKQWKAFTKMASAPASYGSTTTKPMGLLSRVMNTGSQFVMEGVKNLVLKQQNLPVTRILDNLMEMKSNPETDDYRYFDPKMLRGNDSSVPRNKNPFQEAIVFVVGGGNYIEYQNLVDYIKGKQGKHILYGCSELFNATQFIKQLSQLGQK

Compound: Nc1ncnc2c1ncn2[C@@H]1O[C@H](COP(=O)(O)OP(=O)(O)OP(=O)(O)O)[C@@H](O)[C@H]1O [adenosine triphosphate]
Assay: NP40-soluble protein abundance relative to vehicle (solubility fold change) (ratio); higher = more soluble protein in presence of ATP
Summary of the method: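 Crude Jurkat lysate, prepared by Dounce homogenisation, was exposed to eight concentrations from 0.1 to 10 mM for 10 min at room temperature and then 3 min at 37 °C. Solubilisation used 0.8% NP40 with benzonase for 60 min at 4 °C, followed by ultracentrifugation and TMT labelling of the supernatant for LC-MS/MS. After vsn normalisation of intensities, each value is the fold change against the detergent-processed vehicle within each replicate, across three independent experiments.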

For NOC3L (UniProt Q8WTT2), the NP40-soluble protein abundance (concentration: 1mM) was 1.12 ± 0.052, the NP40-soluble protein abundance (concentration: 2mM) was 1.17 ± 0.053 and the NP40-soluble protein abundance (concentration: 4mM) was 1.25 ± 0.063. For the same target, the NP40-soluble protein abundance (concentration: 6mM) was 1.31 ± 0.057, the NP40-soluble protein abundance (concentration: 8mM) was 1.39 ± 0.056 and the NP40-soluble protein abundance (concentration: 10mM) was 1.43 ± 0.037.
Work on RFT1 (UniProt Q96AA3) yielded an NP40-soluble protein abundance (concentration: 1mM) of 0.896 ± 0.091, an NP40-soluble protein abundance (concentration: 2mM) of 0.93 ± 0.099 and an NP40-soluble protein abundance (concentration: 4mM) of 0.915 ± 0.024. It also gave an NP40-soluble protein abundance (concentration: 6mM) of 0.788 ± 0.1, an NP40-soluble protein abundance (concentration: 8mM) of 0.908 ± 0.012 and an NP40-soluble protein abundance (concentration: 10mM) of 0.932 ± 0.069.
For UniProt Q8WXE1 and related entries, the NP40-soluble protein abundance (concentration: 1mM) was 0.955 ± 0.12, the NP40-soluble protein abundance (concentration: 2mM) was 1 ± 0.014 and the NP40-soluble protein abundance (concentration: 4mM) was 0.994 ± 0.052. For the same target, the NP40-soluble protein abundance (concentration: 6mM) was 1.01 ± 0.11, the NP40-soluble protein abundance (concentration: 8mM) was 0.935 ± 0.044 and the NP40-soluble protein abundance (concentration: 10mM) was 0.968 ± 0.056.
UniProt Q8WUW1 and related entries gave an NP40-soluble protein abundance (concentration: 1mM) of 0.856 ± 0.12, an NP40-soluble protein abundance (concentration: 2mM) of 0.818 ± 0.13 and an NP40-soluble protein abundance (concentration: 4mM) of 0.821 ± 0.099. It also gave an NP40-soluble protein abundance (concentration: 6mM) of 0.904 ± 0.14, an NP40-soluble protein abundance (concentration: 8mM) of 0.776 ± 0.13 and an NP40-soluble protein abundance (concentration: 10mM) of 0.81 ± 0.17.
Work on TMEM263 (UniProt Q8WUH6) yielded an NP40-soluble protein abundance (concentration: 1mM) of 0.953 ± 0.1, an NP40-soluble protein abundance (concentration: 2mM) of 0.993 ± 0.061 and an NP40-soluble protein abundance (concentration: 4mM) of 1.01 ± 0.066. It also gave an NP40-soluble protein abundance (concentration: 6mM) of 0.971 ± 0.12, an NP40-soluble protein abundance (concentration: 8mM) of 0.931 ± 0.03 and an NP40-soluble protein abundance (concentration: 10mM) of 0.988 ± 0.075.
NEK7 (UniProt Q8TDX7) was tested, and the NP40-soluble protein abundance (concentration: 1mM) was 1.05 ± 0.036, the NP40-soluble protein abundance (concentration: 2mM) was 1.02 ± 0.033 and the NP40-soluble protein abundance (concentration: 4mM) was 0.9969 ± 0.0076. It also gave an NP40-soluble protein abundance (concentration: 6mM) of 0.98 ± 0.071, an NP40-soluble protein abundance (concentration: 8mM) of 0.996 ± 0.016 and an NP40-soluble protein abundance (concentration: 10mM) of 0.998 ± 0.024.
DPF2 (UniProt Q92785) was tested, and the NP40-soluble protein abundance (concentration: 1mM) was 0.999 ± 0.024, the NP40-soluble protein abundance (concentration: 2mM) was 0.978 ± 0.033 and the NP40-soluble protein abundance (concentration: 4mM) was 0.979 ± 0.02. For the same target, the NP40-soluble protein abundance (concentration: 6mM) was 0.997 ± 0.084, the NP40-soluble protein abundance (concentration: 8mM) was 1.01 ± 0.04 and the NP40-soluble protein abundance (concentration: 10mM) was 1.01 ± 0.05.
UniProt Q96AC1 and related entries gave an NP40-soluble protein abundance (concentration: 1mM) of 1.04 ± 0.12, an NP40-soluble protein abundance (concentration: 2mM) of 1.06 ± 0.09 and an NP40-soluble protein abundance (concentration: 4mM) of 1.07 ± 0.11. It also gave an NP40-soluble protein abundance (concentration: 6mM) of 0.978 ± 0.087, an NP40-soluble protein abundance (concentration: 8mM) of 1.02 ± 0.079 and an NP40-soluble protein abundance (concentration: 10mM) of 1.08 ± 0.13.
For UniProt Q92900-2|Q92900, the NP40-soluble protein abundance (concentration: 1mM) was 0.996 ± 0.021, the NP40-soluble protein abundance (concentration: 2mM) was 1.01 ± 0.031 and the NP40-soluble protein abundance (concentration: 4mM) was 0.9872 ± 0.004. It also gave an NP40-soluble protein abundance (concentration: 6mM) of 0.957 ± 0.06, an NP40-soluble protein abundance (concentration: 8mM) of 0.997 ± 0.013 and an NP40-soluble protein abundance (concentration: 10mM) of 1 ± 0.023.
UniProt Q969E4 gave an NP40-soluble protein abundance (concentration: 1mM) of 0.998 ± 0.15, an NP40-soluble protein abundance (concentration: 2mM) of 0.995 ± 0.16 and an NP40-soluble protein abundance (concentration: 4mM) of 0.919 ± 0.12. It also gave an NP40-soluble protein abundance (concentration: 6mM) of 1.04 ± 0.2, an NP40-soluble protein abundance (concentration: 8mM) of 0.999 ± 0.18 and an NP40-soluble protein abundance (concentration: 10mM) of 0.904 ± 0.25.
Target UniProt Q92542 and related entries has an NP40-soluble protein abundance (concentration: 1mM) of 0.944 ± 0.025, an NP40-soluble protein abundance (concentration: 2mM) of 0.955 ± 0.011 and an NP40-soluble protein abundance (concentration: 4mM) of 0.94 ± 0.024. For the same target, the NP40-soluble protein abundance (concentration: 6mM) was 0.967 ± 0.02, the NP40-soluble protein abundance (concentration: 8mM) was 0.928 ± 0.044 and the NP40-soluble protein abundance (concentration: 10mM) was 0.895 ± 0.075.
UniProt Q8TDQ7 and related entries was tested, and the NP40-soluble protein abundance (concentration: 1mM) was 1.01 ± 0.093, the NP40-soluble protein abundance (concentration: 2mM) was 1.02 ± 0.026 and the NP40-soluble protein abundance (concentration: 4mM) was 1.01 ± 0.062. For the same target, the NP40-soluble protein abundance (concentration: 6mM) was 0.92 ± 0.11, the NP40-soluble protein abundance (concentration: 8mM) was 0.987 ± 0.086 and the NP40-soluble protein abundance (concentration: 10mM) was 0.999 ± 0.016.
In the case of UniProt Q8WVT3, the NP40-soluble protein abundance (concentration: 1mM) is reported as 0.959 ± 0.055, the NP40-soluble protein abundance (concentration: 2mM) is reported as 0.9128 ± 0.0091 and the NP40-soluble protein abundance (concentration: 4mM) is reported as 0.908 ± 0.018. It also gave an NP40-soluble protein abundance (concentration: 6mM) of 0.926 ± 0.016, an NP40-soluble protein abundance (concentration: 8mM) of 0.888 ± 0.032 and an NP40-soluble protein abundance (concentration: 10mM) of 0.908 ± 0.018.
Target UniProt Q96B01 and related entries has an NP40-soluble protein abundance (concentration: 1mM) of 0.987 ± 0.044, an NP40-soluble protein abundance (concentration: 2mM) of 1.02 ± 0.041 and an NP40-soluble protein abundance (concentration: 4mM) of 0.974 ± 0.057. For the same target, the NP40-soluble protein abundance (concentration: 6mM) was 1.08 ± 0.032, the NP40-soluble protein abundance (concentration: 8mM) was 1 ± 0.098 and the NP40-soluble protein abundance (concentration: 10mM) was 1.02 ± 0.093.
With SCFD1 (UniProt Q8WVM8) the NP40-soluble protein abundance (concentration: 1mM) was 1 ± 0.019, the NP40-soluble protein abundance (concentration: 2mM) was 1.01 ± 0.044 and the NP40-soluble protein abundance (concentration: 4mM) was 0.997 ± 0.036. For the same target, the NP40-soluble protein abundance (concentration: 6mM) was 0.98 ± 0.044, the NP40-soluble protein abundance (concentration: 8mM) was 0.975 ± 0.029 and the NP40-soluble protein abundance (concentration: 10mM) was 0.994 ± 0.039.
